Source: the supplement of paper PMC3334620
Whole data set: some 33,000 sequences, median “E-score (-0.5 to 0.5)” near -0.0059, cut for the highest 2% near 0.26. Some of the results follow.

biological target: T1, Cin5 (UniProt P40917); test: PBM E-score (8-mer binding enrichment) (E-score (-0.5 to 0.5)); higher = stronger / more preferred TF binding; settings: protein concentration: 100 nM; construct: GST-full length
T1 sequence: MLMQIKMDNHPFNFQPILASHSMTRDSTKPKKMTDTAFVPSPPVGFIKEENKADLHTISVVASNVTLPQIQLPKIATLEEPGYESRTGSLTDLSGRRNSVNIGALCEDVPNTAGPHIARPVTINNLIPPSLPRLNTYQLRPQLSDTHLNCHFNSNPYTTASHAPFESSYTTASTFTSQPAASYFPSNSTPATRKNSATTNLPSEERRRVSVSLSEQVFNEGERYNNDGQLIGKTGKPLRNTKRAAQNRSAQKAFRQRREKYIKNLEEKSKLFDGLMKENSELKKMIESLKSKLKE
Description: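 Universal 'all 10-mer' protein binding microarrays (Agilent AMADID 015681) probed with GST-tagged S. cerevisiae TFs (full-length or DBD) made by in vitro transcription/translation (PURExpress), about 100-200 nM. Bound TF was detected with fluorescent anti-GST. Each ungapped 8-mer (which stands for itself and its reverse complement) is scored by the PBM enrichment score (E-score), a modified Wilcoxon-Mann-Whitney statistic from -0.5 to +0.5, computed with the Universal PBM Analysis Suite. Scale: above 0.35 generally sequence-specific binding.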

Sequence	PBM E-score
CCTAGGGC	-0.254
CATGAATG	0.11
ATTATTAC	0.305
ATATCATG	0.0651
CCTTCTAA	-0.147
CGAATACA	0.0945
ATGCAGAA	0.163
GCAGTAAA	0.0302
AGCTTAAC	-0.0689
AGTTTTCC	0.155
GCTGGCTA	-0.276
CCAGCGGG	-0.187
ATATGTAG	0.0753
AAAACACG	0.0801
TGCGGCAA	-0.0901
GTAACCAC	-0.0529
CATACTTC	0.0509
CTTCCTTC	-0.224
AGAAAGAT	0.225
ATTAGGGA	-0.0915
AAACGCTG	-0.139
CTATGCTC	0.033

Sequence	PBM E-score
AAGGTGTC	-0.095
ACGGTAGT	-0.0545
CGCAGGAG	-0.081
AATAGGGG	0.0525
GCCCACAC	-0.00586
ATTAAACA	0.0324
AATATCTA	-0.00558
CAGCTCCC	-0.305
GGTGACGA	0.0219
GAACCTCC	-0.231
CACCTCAA	0.0654
CCCTAGGG	-0.347
ATGACATC	0.248
AAAGACCA	-0.155
CTTGCCAA	-0.0718
TTCAGGAA	-0.158
ACTGAATG	0.0689
CGCCTACG	-0.0814
GGAACCTA	0.0299
AATAATCT	0.345
ATTAGGCG	-0.00055
TGACCAAA	0.0366

Sequence	PBM E-score
ATGAACGA	0.0193
GTTAGATA	0.113
CCGTAAGG	-0.33
CACATGCC	-0.0042
ACTCGCAT	0.202
CTTGGGGA	0.198
AGTAAAGG	0.0499
AGAGGTGG	-0.0424
GAGCAGAC	-0.118
CACGCGAG	0.113
TGACAACA	0.142
ACTAGGCC	-0.202
GGCTTTTA	-0.223
ATCGTAAC	0.0852
ACGGTGGG	-0.0554
CGGTACCG	-0.0517
GCTGGTCC	-0.138
AATATGTC	0.103
ACTTGTAA	0.0818
AAATAAGC	0.189
CGCGAGGA	0.0603
TCTAGGCA	-0.134

Sequence	PBM E-score
CTGTCTAA	-0.0712
CACGGTCG	-0.283
TCCAAGCA	-0.0771
GATTCCGC	0.183
CGAAAAGC	-0.179
CCATTCGC	0.0335
TGTCGTAA	0.15
CAGAGGAA	-0.115
CCCGTGTC	-0.16
ATTTAGTC	0.0988
GCCAACTA	-0.0888
AGGGATCG	-0.227
CAAGGCCA	-0.0891
CGTGAGGC	-0.104
CACCTCAG	-0.0514
ACGACTAT	0.00256
CTCATCCC	-0.162
GGCGGGAA	0.0169
ACCGCCCT	-0.185
CAGATTGC	0.0222
